A short description of the first data set: Pharmacokinetic evaluation in rat. Type of data set: in vivo. To be noted: Table 2. The procedure:
The pharmacokinetic behavior of compounds of this disclosure was determined following a single 2 mg/kg intravenous or 5 mg/kg oral dose in male Sprague-Dawley derived rats (n=3 per group). The compounds were prepared as 2 mg/mL solution in a 10% DMSO in PEG-400 formulation for both oral and intravenous administration. The 1 mL/kg intravenous dose was administered as a slow bolus (about 1-2 minutes) in the jugular vein of a rat under light ether anesthetic. The oral dose was administered by gavage. Serial blood samples were obtained from a tail vein of each rat prior 0.1 (IV only), 0.25, 0.5, 1, 1.5, 2, 3, 4, 6, 8 and 24 hours after dosing. The heparinized samples were thoroughly mixed and placed in an ice bath. Plasma was separated by centrifugation and stored frozen prior to analysis.
The compounds of interest were separated from the plasma using protein precipitation with acetonitrile. A plasma (100-200 μL, sample or spiked standard) aliquot was combined with 50 μL of internal standard (structurally related analog prepared in acetonitrile) and 1 ml acetonitrile in a 96-well polypropylene deep well plate. The plates were vortexed for 30 seconds followed by centrifugation (3500 rpm×15 minutes, 4° C.). In an automated manner, the supernatant was transferred to a clean 96-well plate. The samples were evaporated to near dryness on a Micro-Vap™ under a stream of dry nitrogen over low heat (˜37° C.). The samples were reconstituted vortexing with 0.2 mL 5% DMSO in acetonitrile. A 0.1-0.2 ml aliquot of acetonitrile: 0.1% trifluoroacetic acid (20:80, by volume) was added to each well, followed by an additional 30 second vortexing. The plates were centrifuged (3500 rpm×15 minutes, 4° C.) prior to HPLC-MS/MS analysis. Samples were analyzed simultaneously with spiked plasma standards. All samples from each study were analyzed as a single batch on the LC-MS/MS.
The compounds of interest and the internal standard were separated from each other and co-extracted contaminants on a 50×3 mm Keystone Betasil CN 5 μm column with an acetonitrile: 0.1% trifluoroacetic acid mobile phase (50:50, by volume) at a flow rate of 0.7 ml/min. Analysis was performed on a Sciex API 300™ Biomolecular Mass Analyzer using a heated nebulizer interface. Peak areas of the title compounds and internal standards were determined using the Sciex MacQuan™ software. Calibration curves were derived from peak area ratio (parent drug/internal standard) of the spiked rat plasma standards using least squares linear regression of the ratio versus the theoretical concentration. The methods were generally linear over the range of the standard curve (correlation coefficients >0.99) with an estimated quantitation limit of 0.01 μg/mL. The plasma concentration data for each animal were submitted to multi-exponential curve fitting using WinNonlin. The area under the plasma concentration-time curve from 0 to t hours (time of the last measurable plasma concentration) after dosing (AUC0-t) was calculated using the linear trapezoidal rule for the plasma concentration-time profiles. The residual area extrapolated to infinity, determined as the final measured plasma concentration (Ct) divided by the terminal elimination rate constant (β), was added to AUC0-t to produce the total area under the curve (AUC0-∞). Ki values shown in the tables below were determined using Wang's equation (Wang Z X., An Exact Mathematical Expression For Describing Competitive Binding Of Two Different Ligands To A Protein Molecule. FEBS Lett. 1995; 360:111-4)).
As to `CN(C)CC[C@H](CSc1ccccc1)Nc1ccc(S(=O)(=O)NC(=O)c2ccc(N3CCN(Cc4ccccc4-c4ccc(Cl)cc4)CC3)cc2)cc1S(=O)(=O)C(F)(F)F` [Example 38, N-(4-(4-((4′-chloro(1,1′-biphenyl)-2-yl)methyl)-1-piperazinyl)benzoyl)-4-(((1R)-3-(dimethylamino)-1-((phenylsulfanyl)methyl)propyl)amino)-3-((trifluoromethyl)sulfonyl)benzenesulfonamide], the “PK/PD ratio AUC/EC50” value is listed as 16.9.
Turning to `CN(C)CC[C@H](CSc1ccccc1)Nc1ccc(S(=O)(=O)NC(=O)c2ccc(N3CCN(Cc4ccccc4-c4ccc(Cl)cc4)CC3)cc2)cc1C(F)(F)F` [A, reference compound], the “PK/PD ratio AUC/EC50” value is 2.8.

Staying with this data set, now noted: Table 3.
As to `CN(C)CC[C@H](CSc1ccccc1)Nc1ccc(S(=O)(=O)NC(=O)c2ccc(N3CCN(CC4=C(c5ccc(Cl)cc5)CCCC4)CC3)cc2)cc1C(F)(F)F` [H, reference compound], the “PK/PD ratio AUC/EC50” value came out at 4.8.
As for `CN(C)CC[C@H](CSc1ccccc1)Nc1ccc(S(=O)(=O)NC(=O)c2ccc(N3CCN(CC4=C(c5ccc(Cl)cc5)CCCC4)CC3)cc2)cc1S(=O)(=O)C(F)(F)F` [Example 26, N-(4-(4-((2-(4-chlorophenyl)cyclohex-1-en-1-yl)methyl)piperazin-1-yl)benzoyl)-4-(((1R)-3-(dimethylamino)-1-((phenylsulfanyl)methyl)propyl)amino)-3-((trifluoromethyl)sulfonyl)benzenesulfonamide], the “PK/PD ratio AUC/EC50” value is on record as 33.0.

The data set is the same for the next values; noted with them: rat oral AUC / NCI-H146 EC50; Table 1.
For the compound `CC1(C)CCC(c2ccc(Cl)cc2)=C(CN2CCN(c3ccc(C(=O)NS(=O)(=O)c4ccc(N[C@H](CCN5CC6CC5CO6)CSc5ccccc5)c(S(=O)(=O)C(F)(F)F)c4)cc3)CC2)C1` (stereo partly drawn) [Example 10, N-(4-(4-((2-(4-chlorophenyl)-5,5-dimethylcyclohex-1-en-1-yl)methyl)piperazin-1-yl)benzoyl)-4-(((1R)-3-(2-oxa-5-azabicyclo[2.2.1]hept-5-yl)-1-((phenylsulfanyl)methyl)propyl)amino)-3-((trifluoromethyl)sulfonyl)benzenesulfonamide], the “PK/PD ratio AUC/EC50” value came out at 73.
Same read-out and setting: for `CN(C)CC[C@H](CSc1ccccc1)Nc1ccc(S(=O)(=O)NC(=O)c2ccc(N3CCN(CC4=C(c5ccc(Cl)cc5)CCC(C)(C)C4)CC3)cc2)cc1S(=O)(=O)C(F)(F)F` [Example 20, N-(4-(4-((2-(4-chlorophenyl)-5,5-dimethyl-1-cyclohex-1-en-1-yl)methyl)piperazin-1-yl)benzoyl)-4-(((1R)-3-(dimethylamino)-1-((phenylsulfanyl)methyl)propyl)amino)-3-((trifluoromethyl)sulfonyl)benzenesulfonamide] the value was 112; for `O=C(NS(=O)(=O)c1ccc(N[C@H](CCN2CCCCCC2)CSc2ccccc2)c(S(=O)(=O)C(F)(F)F)c1)c1ccc(N2CCN(CC3=C(c4ccc(Cl)cc4)CCCC3)CC2)cc1` [Example 16, 4-(((1R)-3-(azepan-1-yl)-1-((phenylsulfanyl)methyl)propyl)amino)-N-(4-(4-((2-(4-chlorophenyl)-1-cyclohex-1-en-1-yl)methyl)piperazin-1-yl)benzoyl)-3-((trifluoromethyl)sulfonyl)benzenesulfonamide], 63.
Turning to `CC(C)N(C)CC[C@H](CSc1ccccc1)Nc1ccc(S(=O)(=O)NC(=O)c2ccc(N3CCN(CC4=C(c5ccc(Cl)cc5)CCC(C)(C)C4)CC3)cc2)cc1S(=O)(=O)C(F)(F)F` [Example 4, N-(4-(4-((2-(4-chlorophenyl)-5,5-dimethylcyclohex-1-en-1-yl)methyl)piperazin-1-yl)benzoyl)-4-(((1R)-3-(isopropyl(methyl)amino)-1-((phenylsulfanyl)methyl)propyl)amino)-3-((trifluoromethyl)sulfonyl)benzenesulfonamide], the “PK/PD ratio AUC/EC50” value is 108.
Take `CN(C)CC[C@H](CSc1ccccc1)Nc1ccc(S(=O)(=O)NC(=O)c2ccc(N3CCN(Cc4ccccc4-c4ccc(Cl)cc4)CC3)cc2)cc1S(=O)(=O)C(F)(F)F` [Example 38, N-(4-(4-((4′-chloro(1,1′-biphenyl)-2-yl)methyl)-1-piperazinyl)benzoyl)-4-(((1R)-3-(dimethylamino)-1-((phenylsulfanyl)methyl)propyl)amino)-3-((trifluoromethyl)sulfonyl)benzenesulfonamide]: the “PK/PD ratio AUC/EC50” value is recorded as 17.
The same measure, in the same setting: for `CC1(C)CCC(CN2CCN(c3ccc(C(=O)NS(=O)(=O)c4ccc(N[C@H](CCN5CCOCC5)CSc5ccccc5)c(S(=O)(=O)C(F)(F)F)c4)cc3)CC2)=C(c2ccc(Cl)cc2)C1` [Example 24, N-(4-(4-((2-(4-chlorophenyl)-4,4-dimethylcyclohex-1-en-1-yl)methyl)piperazin-1-yl)benzoyl)-4-(((1R)-3-(morpholin-4-yl)-1-((phenylsulfanyl)methyl)propyl)amino)-3-((trifluoromethyl)sulfonyl)benzenesulfonamide] the value was 181; for `CN(C)CC[C@H](CSc1ccccc1)Nc1ccc(S(=O)(=O)NC(=O)c2ccc(N3CCN(CC4=C(c5ccc(Cl)cc5)CC(C)(C)CC4)CC3)cc2)cc1S(=O)(=O)C(F)(F)F` [Example 37, N-(4-(4-((2-(4-chlorophenyl)-4,4-dimethylcyclohex-1-en-1-yl)methyl)piperazin-1-yl)benzoyl)-4-(((1R)-3-(dimethylamino)-1-((phenylsulfanyl)methyl)propyl)amino)-3-((trifluoromethyl)sulfonyl)benzenesulfonamide], 417.
Regarding `CN(C)CC[C@H](CSc1ccccc1)Nc1ccc(S(=O)(=O)NC(=O)c2ccc(N3CCN(CC4=C(c5ccc(Cl)cc5)CCCC4)CC3)cc2)cc1S(=O)(=O)C(F)(F)F` [Example 26, N-(4-(4-((2-(4-chlorophenyl)cyclohex-1-en-1-yl)methyl)piperazin-1-yl)benzoyl)-4-(((1R)-3-(dimethylamino)-1-((phenylsulfanyl)methyl)propyl)amino)-3-((trifluoromethyl)sulfonyl)benzenesulfonamide], the “PK/PD ratio AUC/EC50” value is reported as 33.
Regarding `CC1(C)CCC(c2ccc(Cl)cc2)=C(CN2CCN(c3ccc(C(=O)NS(=O)(=O)c4ccc(N[C@H](CCN5CCCC5)CSc5ccccc5)c(S(=O)(=O)C(F)(F)Cl)c4)cc3)CC2)C1` [Example 30, 3-((chloro(difluoro)methyl)sulfonyl)-N-(4-(4-((2-(4-chlorophenyl)-5,5-dimethylcyclohex-1-en-1-yl)methyl)piperazin-1-yl)benzoyl)-4-(((1R)-1-((phenylsulfanyl)methyl)-3-(pyrrolidin-1-yl)propyl)amino)benzenesulfonamide], the “PK/PD ratio AUC/EC50” value was 107.
`CC1(C)CCC(c2ccc(Cl)cc2)=C(CN2CCN(c3ccc(C(=O)NS(=O)(=O)c4ccc(N[C@H](CCN5CC6CC5CO6)CSc5ccccc5)c(S(=O)(=O)C(F)(F)Cl)c4)cc3)CC2)C1` (stereo partly drawn) [Example 11, 3-((chloro(difluoro)methyl)sulfonyl)-N-(4-(4-((2-(4-chlorophenyl)-5,5-dimethylcyclohex-1-en-1-yl)methyl)piperazin-1-yl)benzoyl)-4-(((1R)-3-(2-oxa-5-azabicyclo[2.2.1]hept-5-yl)-1-((phenylsulfanyl)methyl)propyl)amino)benzenesulfonamide]: the “PK/PD ratio AUC/EC50” value turned out to be 117.
Same read-out and setting: next, `O=C(NS(=O)(=O)c1ccc(N[C@H](CCN2CC3CC2CO3)CSc2ccccc2)c(S(=O)(=O)C(F)(F)F)c1)c1ccc(N2CCN(CC3=C(c4ccc(Cl)cc4)CCCCC3)CC2)cc1` (stereo partly drawn) [Example 12, N-(4-(4-((2-(4-chlorophenyl)cyclohept-1-en-1-yl)methyl)piperazin-1-yl)benzoyl)-4-(((1R)-3-(2-oxa-5-azabicyclo[2.2.1]hept-5-yl)-1-((phenylsulfanyl)methyl)propyl)amino)-3-((trifluoromethyl)sulfonyl)benzenesulfonamide]: 76.

Source of the values: patent US8624027B2, “Combination therapy for treating cancer and diagnostic assays for use therein” (AbbVie Inc., priority 2005, dated 2014).
